# In the supplement of paper PMC7830784:
# Counter-ions that a name gives are not always drawn. This is one part of the list. Most values lie within the scatter of the assay; repeated measurements hardly agree.
# Tested on: Brugia pahangi adult female
# Assay: motility inhibition on day 3 relative to DMSO vehicle; higher = more active
# Conditions: 10 µM; 3 days
row,Compound,motility inhibition on day 3 [%]
1,COc1ccc(C(=O)NCc2ccc(OCCN(C)C)cc2)cc1OC [itopride  hydrochloride],< 0
2,N[C@@H](C(=O)N[C@@H]1C(=O)N2C(C(=O)O)=C(Cl)CS[C@H]12)c1ccccc1 [cefaclor],5.3
3,CC(C)CN(C[C@@H](OP(=O)(O)O)[C@H](Cc1ccccc1)NC(=O)O[C@H]1CCOC1)S(=O)(=O)c1ccc(N)cc1 [Fosamprenavir Calcium Salt],2.07
4,Cc1ccc2c(Cl)cc(Cl)c(O)c2n1 [chlorquinaldol],< 0
5,N=C(N)N/N=C/c1c(Cl)cccc1Cl [Guanabenz acetate],21.2
6,N=C(N)N/N=C/c1c(Cl)cccc1Cl [guanabenz acetate],21.7
7,OC(CCN1CCCCC1)(c1ccccc1)C1CCCCC1 (configuration not stated) [Trihexyphenidyl hydrochloride],7.65
8,O=C(OCc1ccccc1)c1ccccc1 [benzyl benzoate],2.46
9,CCCc1nc(C(C)(C)O)c(C(=O)O)n1Cc1ccc(-c2ccccc2-c2nnn[nH]2)cc1 [olmesartan],31.1
10,Brc1c(NC2=NCCN2)ccc2nccnc12,< 0
11,CN(C)CCOC(=O)COc1ccc(Cl)cc1 [meclofenoxate hydrochloride],9.78
12,CC(N)C12CC3CC(CC(C3)C1)C2 (configuration not stated) [rimantadine hydrochloride],19
13,COC(=O)C(N)CS (configuration not stated) [mecysteine hydrochloride],< 0
14,Nc1cc(-c2ccncc2)c[nH]c1=O [amrinone],2.63
15,CN(CCOc1ccc(CC2SC(=O)NC2=O)cc1)c1ccccn1 (configuration not stated) [rosiglitazone],33
16,CN(C)CC[C@@H](c1ccc(Cl)cc1)c1ccccn1 [dexchlorpheniramine maleate],12.8
17,CCc1oc2ccccc2c1C(=O)c1cc(Br)c(O)c(Br)c1 [benzbromarone],5.12
18,CC/C(=C(\c1ccccc1)c1ccc(OCCN(C)C)cc1)c1ccccc1 [Tamoxifen citrate],10.1
19,CN[C@@H]1[C@H](O[C@H]2[C@H](O[C@H]3[C@H](O)[C@@H](O)[C@H](NC(=N)N)[C@@H](O)[C@@H]3NC(=N)N)O[C@@H](C)[C@]2(O)CO)O[C@@H](CO)[C@H](O)[C@H]1O [dihydrostreptomycin sulfate],0.0193
20,NCc1ccc(S(N)(=O)=O)cc1 [mafenide hydrochloride],15.4
21,CC(C)(C)NCC(O)c1cc(O)cc(O)c1 (configuration not stated) [terbutaline hemisulfate],< 0
22,CC[N+](CC)(CC)CCOc1cccc(OCC[N+](CC)(CC)CC)c1OCC[N+](CC)(CC)CC [Gallamine triethiodide],30.8
23,CCOC(=O)[N-]c1c[n+](N2CCOCC2)no1 [molsidomine],< 0
24,C#C[C@]1(O)CC[C@H]2[C@@H]3CCC4=C(CCC(=O)C4)[C@H]3CC[C@@]21C [norethynodrel],14.4
25,COc1cc2ncnc(Nc3ccc(F)c(Cl)c3)c2cc1OCCCN1CCOCC1 [gefitinib],14.1
26,CCOc1ccc(NC(C)=O)cc1 [phenacetin],8.06

row,Compound,motility inhibition on day 3 [%]
1,CN1CCC[C@@H]1CCO[C@](C)(c1ccccc1)c1ccc(Cl)cc1 [clemastine],11.5
2,O=C(O)c1ccccc1 [benzoic acid],24.6
3,CC[C@@H]([C@H](C)O)n1ncn(-c2ccc(N3CCN(c4ccc(OC[C@@H]5CO[C@@](Cn6cncn6)(c6ccc(F)cc6F)C5)cc4)CC3)cc2)c1=O [Posaconazole],91.3
4,CC(=O)Nc1ccc(C(=O)O)cc1 [acedoben],1.43
5,CCCCC[C@H](O)/C=C/[C@H]1[C@H](O)CC(=O)[C@@H]1CCCCCCC(=O)O [Prostaglandin E1],6.47
6,COc1ccc(CN2CCN(C(c3ccc(F)cc3)c3ccc(F)cc3)CC2)c(OC)c1OC [lomerizine hydrochloride],< 0
7,OCc1ccccn1 [piconol],28.1
8,Nc1nc2[nH]cc(CCc3ccc(C(=O)N[C@@H](CCC(=O)O)C(=O)O)cc3)c2c(=O)[nH]1 [pemetrexed],< 0
9,COCCc1ccc(OCC(O)CNC(C)C)cc1 (configuration not stated) [metoprolol tartrate],< 0
10,COc1ccc(C(=O)c2ccccc2O)c(O)c1 [dioxybenzone],< 0
11,CC(C)(C)NC[C@H](O)COc1ccccc1C1CCCC1 [penbutolol sulfate],7.81
12,CC1CCCC(C)N1 (configuration not stated) [nanofin],1.91
13,Cc1ncc(COP(=O)([O-])[O-])c(CN(CCN(CC(=O)O)Cc2c(COP(=O)([O-])O)cnc(C)c2O)CC(=O)O)c1O.[Mn].[Na+].[Na+].[Na+] [mangafodipir trisodium],3.58
14,CC1=C(C/C=C(\C)CCC[C@H](C)CCC[C@H](C)CCCC(C)C)C(=O)c2ccccc2C1=O [phytonadione],37.7
15,O=C(O)C1(C(=O)O)CCC1.[NH2-].[NH2-].[Pt+2] [Carboplatin],7.41
16,O=C(O)C1(C(=O)O)CCC1.[NH2-].[NH2-].[Pt+2] [carboplatin],33.4
17,Cc1cnc(C(=O)O)c[n+]1[O-] [acipimox],< 0
18,CC(=O)Nc1cccc(O)c1 [metacetamol],< 0
19,CCCCNc1ccc(C(=O)OCCN(C)C)cc1 [Tetracaine hydrochloride],< 0
20,CCCCCOC(=O)Nc1nc(=O)n([C@@H]2O[C@H](C)[C@@H](O)[C@H]2O)cc1F [capecitabine],2.03
21,CCN(CC)CCOc1ccc(C(=C(Cl)c2ccccc2)c2ccccc2)cc1 [clomiphene citrate],10.5
22,CN1CCC(=C2c3ccccc3CCc3sccc32)CC1 [pizotyline malate],21.8
23,CN1CCOC(c2ccccc2)c2ccccc2C1 (configuration not stated) [nefopam],5.18
24,O=S(=O)(O)c1cc(I)c(O)c2ncccc12 [chiniofon],10.2
25,O=C1[C@H](CC[C@H](O)c2ccc(F)cc2)[C@@H](c2ccc(O)cc2)N1c1ccc(F)cc1 [ezetimibe],5.79
26,Cc1cnc(C(=O)NCCc2ccc(S(=O)(=O)NC(=O)NC3CCCCC3)cc2)cn1 [Glipizide],3.67

# No new results follow: entries from further up.
row,Compound,motility inhibition on day 3 [%]
16,O=C(O)C1(C(=O)O)CCC1.[NH2-].[NH2-].[Pt+2] [carboplatin],33.4
17,Cc1cnc(C(=O)O)c[n+]1[O-] [acipimox],< 0
18,CC(=O)Nc1cccc(O)c1 [metacetamol],< 0
